Measured data: PubChem BioAssay AID1508597 (Cure First, 2020)
The deposit covers about 2,100 reagents; below is a part drawn at random. 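Calls flag viability under 80% in either arm, not effects specific to rucaparib; the reference for percent is not stated.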 Entries without a mark were called inactive. Some reagents were tested in more than one well and are listed for each. No sequences are given here. Not given: the 100% reference.

Screen: 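Survival screen with siRNA in ovarian cancer cells derived from patients, with or without rucaparib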 (primary screen)
Cell system: human ovarian carcinoma lines grown from tumours: OCI-P5x (papillary serous) and OCI-C5x (clear cell)
Knock-down reagent: siRNA pool against human genes, 1.25 pmol siRNA per well
Time to read-out: 72 h or 96 h, depending on the cell culture
Challenge: rucaparib 20 µM (about IC30) or vehicle, present until read-out
Read-out: 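Luminescent ATP-based viability assay read 72 or 96 h after transfection, depending on culture, given as normalised percent viability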
Reading the numbers: viability, normalised: higher = more viable cells remaining
Call rule: 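a well counts as a hit if its normalised viability is under 80 percent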
Meaning of the calls: active = viability under 80%; inactive = viability 80% or more

no.	Gene	rucaparib or vehicle	cell line	technical replicate	viability, normalised (%)
1	SUDS3	Rucaparib	OCI-C5x (clear cell)	1	24 (active)
2	SUDS3	Rucaparib	OCI-C5x (clear cell)	2	19.9 (active)
3	SUDS3	Rucaparib	OCI-C5x (clear cell)	3	26.4 (active)
4	SUDS3	Rucaparib	OCI-P5x (serous)	1	52.6 (active)
5	SUDS3	Rucaparib	OCI-P5x (serous)	2	46.7 (active)
6	SUDS3	Rucaparib	OCI-P5x (serous)	3	49.6 (active)
7	SUDS3	Vehicle	OCI-C5x (clear cell)	1	26.3 (active)
8	SUDS3	Vehicle	OCI-C5x (clear cell)	2	26.8 (active)
9	SUDS3	Vehicle	OCI-C5x (clear cell)	3	34.9 (active)
10	SUDS3	Vehicle	OCI-P5x (serous)	1	66.8 (active)
11	SUDS3	Vehicle	OCI-P5x (serous)	2	52.3 (active)
12	SUDS3	Vehicle	OCI-P5x (serous)	3	78.1 (active)
13	MAPKAPK3	Rucaparib	OCI-C5x (clear cell)	1	35.7 (active)
14	MAPKAPK3	Rucaparib	OCI-C5x (clear cell)	2	39.1 (active)
15	MAPKAPK3	Rucaparib	OCI-C5x (clear cell)	3	52.7 (active)
16	MAPKAPK3	Rucaparib	OCI-P5x (serous)	1	70.8 (active)
17	MAPKAPK3	Rucaparib	OCI-P5x (serous)	2	55 (active)
18	MAPKAPK3	Rucaparib	OCI-P5x (serous)	3	69.6 (active)
19	MAPKAPK3	Vehicle	OCI-C5x (clear cell)	1	33.4 (active)
20	MAPKAPK3	Vehicle	OCI-C5x (clear cell)	2	52.2 (active)
21	MAPKAPK3	Vehicle	OCI-C5x (clear cell)	3	50.8 (active)
22	MAPKAPK3	Vehicle	OCI-P5x (serous)	1	69.1 (active)
23	MAPKAPK3	Vehicle	OCI-P5x (serous)	2	16 (active)
24	MAPKAPK3	Vehicle	OCI-P5x (serous)	3	59.9 (active)
25	POLB	Rucaparib	OCI-C5x (clear cell)	1	49 (active)
26	POLB	Rucaparib	OCI-C5x (clear cell)	2	40.2 (active)
27	POLB	Rucaparib	OCI-C5x (clear cell)	3	56.4 (active)
28	POLB	Rucaparib	OCI-P5x (serous)	1	48.3 (active)
29	POLB	Rucaparib	OCI-P5x (serous)	2	49.3 (active)
30	POLB	Rucaparib	OCI-P5x (serous)	3	61.6 (active)
31	POLB	Vehicle	OCI-C5x (clear cell)	1	91.8
32	POLB	Vehicle	OCI-C5x (clear cell)	2	60.9 (active)
33	POLB	Vehicle	OCI-C5x (clear cell)	3	53.1 (active)
34	POLB	Vehicle	OCI-P5x (serous)	1	57.6 (active)
35	POLB	Vehicle	OCI-P5x (serous)	2	63.7 (active)
36	POLB	Vehicle	OCI-P5x (serous)	3	58.1 (active)
37	SLIT3	Rucaparib	OCI-C5x (clear cell)	1	49.8 (active)
38	SLIT3	Rucaparib	OCI-C5x (clear cell)	2	51.2 (active)
39	SLIT3	Rucaparib	OCI-C5x (clear cell)	3	50.6 (active)
40	SLIT3	Rucaparib	OCI-P5x (serous)	1	71 (active)
41	SLIT3	Rucaparib	OCI-P5x (serous)	2	54.2 (active)
42	SLIT3	Rucaparib	OCI-P5x (serous)	3	61.8 (active)
43	SLIT3	Vehicle	OCI-C5x (clear cell)	1	48.9 (active)
44	SLIT3	Vehicle	OCI-C5x (clear cell)	2	50.3 (active)
45	SLIT3	Vehicle	OCI-C5x (clear cell)	3	41.5 (active)
46	SLIT3	Vehicle	OCI-P5x (serous)	1	71.7 (active)
47	SLIT3	Vehicle	OCI-P5x (serous)	2	70 (active)
48	SLIT3	Vehicle	OCI-P5x (serous)	3	91.7

Reprinted from above, 9 entries:
no.	Gene	rucaparib or vehicle	cell line	technical replicate	viability, normalised (%)
33	POLB	Vehicle	OCI-C5x (clear cell)	3	53.1 (active)
34	POLB	Vehicle	OCI-P5x (serous)	1	57.6 (active)
35	POLB	Vehicle	OCI-P5x (serous)	2	63.7 (active)
36	POLB	Vehicle	OCI-P5x (serous)	3	58.1 (active)
37	SLIT3	Rucaparib	OCI-C5x (clear cell)	1	49.8 (active)
38	SLIT3	Rucaparib	OCI-C5x (clear cell)	2	51.2 (active)
39	SLIT3	Rucaparib	OCI-C5x (clear cell)	3	50.6 (active)
40	SLIT3	Rucaparib	OCI-P5x (serous)	1	71 (active)
41	SLIT3	Rucaparib	OCI-P5x (serous)	2	54.2 (active)

The list goes on.
no.	Gene	rucaparib or vehicle	cell line	technical replicate	viability, normalised (%)
49	VRK3	Rucaparib	OCI-C5x (clear cell)	1	55.7 (active)
50	VRK3	Rucaparib	OCI-C5x (clear cell)	1	77.7 (active)
51	VRK3	Rucaparib	OCI-C5x (clear cell)	2	83.4
52	VRK3	Rucaparib	OCI-C5x (clear cell)	2	55.9 (active)
53	VRK3	Rucaparib	OCI-C5x (clear cell)	3	86.7
54	VRK3	Rucaparib	OCI-C5x (clear cell)	3	69.2 (active)
55	VRK3	Rucaparib	OCI-P5x (serous)	1	60.2 (active)
56	VRK3	Rucaparib	OCI-P5x (serous)	1	147
57	VRK3	Rucaparib	OCI-P5x (serous)	2	134
58	VRK3	Rucaparib	OCI-P5x (serous)	2	59.6 (active)
59	VRK3	Rucaparib	OCI-P5x (serous)	3	65.2 (active)
60	VRK3	Rucaparib	OCI-P5x (serous)	3	120
61	VRK3	Vehicle	OCI-C5x (clear cell)	1	54.6 (active)
62	VRK3	Vehicle	OCI-C5x (clear cell)	1	69.3 (active)
63	VRK3	Vehicle	OCI-C5x (clear cell)	2	51.9 (active)
64	VRK3	Vehicle	OCI-C5x (clear cell)	2	81.4
65	VRK3	Vehicle	OCI-C5x (clear cell)	3	57.4 (active)
66	VRK3	Vehicle	OCI-C5x (clear cell)	3	85.5
67	VRK3	Vehicle	OCI-P5x (serous)	1	140
68	VRK3	Vehicle	OCI-P5x (serous)	1	72.2 (active)
69	VRK3	Vehicle	OCI-P5x (serous)	2	143
70	VRK3	Vehicle	OCI-P5x (serous)	2	68.3 (active)
71	VRK3	Vehicle	OCI-P5x (serous)	3	134
72	VRK3	Vehicle	OCI-P5x (serous)	3	53.4 (active)
